Converted amounts (≈) assume the structure as drawn. This continues a long series; more values of the same kind are listed elsewhere.
Tested on: Escherichia coli
Assay: minimum inhibitory concentration (MIC)
Description: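 Broth microdilution MIC (Sensititre BOPO7F bovine plate, CLSI methods) of 19 antimicrobials against field isolates of P. multocida, M. haemolytica, H. somni (deep nasopharyngeal swabs) and E. coli, Enterococcus spp. (rectal swabs) from weaned dairy heifers. Incubation 16-24 h at 35 C. MIC is the lowest concentration preventing visible growth. Values with <= or > lie at the tested range limits. Trimethoprim-sulfamethoxazole is given as the trimethoprim component of a 1:19 mixture.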

CN[C@@H]1[C@H](O)[C@H](NC)[C@H]2O[C@@]3(O)C(=O)C[C@@H](C)O[C@H]3O[C@@H]2[C@H]1O [Spectinomycin]
Details | minimum inhibitory concentration [µg/mL]
isolate (source animal id): 1 | 16 (≈ 48.1 µM)
isolate (source animal id): 2 | 32 (≈ 96.3 µM)
isolate (source animal id): 3 | 16 (≈ 48.1 µM)
isolate (source animal id): 4 | 16 (≈ 48.1 µM)
isolate (source animal id): 5 | > 64
isolate (source animal id): 6 | 32 (≈ 96.3 µM)
isolate (source animal id): 7 | 32 (≈ 96.3 µM)
isolate (source animal id): 17 | > 64
isolate (source animal id): 18 | 16 (≈ 48.1 µM)
isolate (source animal id): 19 | 16 (≈ 48.1 µM)
isolate (source animal id): 20 | 16 (≈ 48.1 µM)
isolate (source animal id): 21 | 16 (≈ 48.1 µM)
isolate (source animal id): 22 | 16 (≈ 48.1 µM)
isolate (source animal id): 23 | 16 (≈ 48.1 µM)
isolate (source animal id): 24 | 16 (≈ 48.1 µM)
isolate (source animal id): 25 | > 64
isolate (source animal id): 26 | 16 (≈ 48.1 µM)
isolate (source animal id): 27 | > 64
isolate (source animal id): 28 | 16 (≈ 48.1 µM)
isolate (source animal id): 29 | > 64
isolate (source animal id): 30 | > 64
isolate (source animal id): 31 | 32 (≈ 96.3 µM)
isolate (source animal id): 32 | 64 (≈ 193 µM)
isolate (source animal id): 33 | > 64
isolate (source animal id): 34 | 16 (≈ 48.1 µM)
isolate (source animal id): 35 | > 64
isolate (source animal id): 36 | 16 (≈ 48.1 µM)
isolate (source animal id): 37 | 16 (≈ 48.1 µM)
isolate (source animal id): 38 | 16 (≈ 48.1 µM)
isolate (source animal id): 39 | > 64
isolate (source animal id): 40 | 16 (≈ 48.1 µM)
isolate (source animal id): 41 | > 64
isolate (source animal id): 42 | 16 (≈ 48.1 µM)
isolate (source animal id): 43 | > 64
isolate (source animal id): 44 | 16 (≈ 48.1 µM)
isolate (source animal id): 45 | > 64
isolate (source animal id): 46 | 16 (≈ 48.1 µM)
isolate (source animal id): 47 | 16 (≈ 48.1 µM)
isolate (source animal id): 48 | 16 (≈ 48.1 µM)
isolate (source animal id): 49 | > 64
isolate (source animal id): 50 | > 64
isolate (source animal id): 51 | 32 (≈ 96.3 µM)
isolate (source animal id): 52 | 32 (≈ 96.3 µM)
isolate (source animal id): 53 | 32 (≈ 96.3 µM)
isolate (source animal id): 54 | 16 (≈ 48.1 µM)
isolate (source animal id): 55 | 16 (≈ 48.1 µM)
isolate (source animal id): 56 | 16 (≈ 48.1 µM)
isolate (source animal id): 57 | > 64
isolate (source animal id): 58 | 16 (≈ 48.1 µM)
isolate (source animal id): 59 | 16 (≈ 48.1 µM)
isolate (source animal id): 60 | 16 (≈ 48.1 µM)
isolate (source animal id): 61 | > 64
isolate (source animal id): 62 | 16 (≈ 48.1 µM)
isolate (source animal id): 63 | 16 (≈ 48.1 µM)
isolate (source animal id): 64 | 16 (≈ 48.1 µM)
isolate (source animal id): 65 | 32 (≈ 96.3 µM)
isolate (source animal id): 66 | > 64
isolate (source animal id): 67 | 16 (≈ 48.1 µM)
isolate (source animal id): 68 | 16 (≈ 48.1 µM)
isolate (source animal id): 69 | 16 (≈ 48.1 µM)
isolate (source animal id): 70 | 16 (≈ 48.1 µM)
isolate (source animal id): 71 | 16 (≈ 48.1 µM)
isolate (source animal id): 72 | 16 (≈ 48.1 µM)
isolate (source animal id): 73 | 16 (≈ 48.1 µM)
isolate (source animal id): 74 | 16 (≈ 48.1 µM)
isolate (source animal id): 75 | 16 (≈ 48.1 µM)
isolate (source animal id): 76 | > 64
isolate (source animal id): 77 | 16 (≈ 48.1 µM)
isolate (source animal id): 78 | > 64
isolate (source animal id): 79 | 16 (≈ 48.1 µM)
isolate (source animal id): 80 | 16 (≈ 48.1 µM)
isolate (source animal id): 81 | > 64
isolate (source animal id): 82 | 16 (≈ 48.1 µM)
isolate (source animal id): 83 | 16 (≈ 48.1 µM)
isolate (source animal id): 84 | 16 (≈ 48.1 µM)
isolate (source animal id): 85 | 16 (≈ 48.1 µM)
isolate (source animal id): 86 | > 64
isolate (source animal id): 87 | ≤ 8
isolate (source animal id): 88 | ≤ 8
isolate (source animal id): 89 | 16 (≈ 48.1 µM)
isolate (source animal id): 90 | 16 (≈ 48.1 µM)
isolate (source animal id): 91 | ≤ 8
isolate (source animal id): 92 | 16 (≈ 48.1 µM)
isolate (source animal id): 93 | 16 (≈ 48.1 µM)
isolate (source animal id): 94 | > 64
isolate (source animal id): 95 | 16 (≈ 48.1 µM)
isolate (source animal id): 96 | ≤ 8
isolate (source animal id): 97 | 16 (≈ 48.1 µM)
isolate (source animal id): 189 | 16 (≈ 48.1 µM)
isolate (source animal id): 190 | 16 (≈ 48.1 µM)
isolate (source animal id): 191 | 16 (≈ 48.1 µM)
isolate (source animal id): 192 | 16 (≈ 48.1 µM)
isolate (source animal id): 193 | 16 (≈ 48.1 µM)
isolate (source animal id): 194 | 16 (≈ 48.1 µM)
isolate (source animal id): 195 | 16 (≈ 48.1 µM)
isolate (source animal id): 196 | 16 (≈ 48.1 µM)
isolate (source animal id): 197 | 16 (≈ 48.1 µM)
isolate (source animal id): 198 | 64 (≈ 193 µM)
isolate (source animal id): 199 | 16 (≈ 48.1 µM)
isolate (source animal id): 200 | 16 (≈ 48.1 µM)
isolate (source animal id): 201 | 16 (≈ 48.1 µM)
isolate (source animal id): 202 | 16 (≈ 48.1 µM)
isolate (source animal id): 203 | 16 (≈ 48.1 µM)
isolate (source animal id): 204 | 16 (≈ 48.1 µM)
isolate (source animal id): 205 | 16 (≈ 48.1 µM)
isolate (source animal id): 206 | 16 (≈ 48.1 µM)
isolate (source animal id): 207 | 16 (≈ 48.1 µM)
isolate (source animal id): 208 | 16 (≈ 48.1 µM)
isolate (source animal id): 209 | 16 (≈ 48.1 µM)
isolate (source animal id): 210 | > 64
isolate (source animal id): 211 | 16 (≈ 48.1 µM)
isolate (source animal id): 212 | 16 (≈ 48.1 µM)
isolate (source animal id): 213 | 16 (≈ 48.1 µM)
isolate (source animal id): 214 | 16 (≈ 48.1 µM)
isolate (source animal id): 215 | 16 (≈ 48.1 µM)
isolate (source animal id): 216 | 32 (≈ 96.3 µM)
isolate (source animal id): 217 | ≤ 8
isolate (source animal id): 218 | 16 (≈ 48.1 µM)
isolate (source animal id): 219 | 16 (≈ 48.1 µM)
isolate (source animal id): 220 | 16 (≈ 48.1 µM)
